Source: the supplement of paper PMC4858399

Columns and labels:
[1] = test system: Caenorhabditis elegans N2; test: mean nematode size ln(EXT) after 48 h, plate-adjusted (DMSO control set to 6) (ln(EXT), control-adjusted); higher = larger nematodes / less growth inhibition; conditions: exposure time 48 h
Procedure, shortened: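 In K-medium with killed OP50, 1% DMSO and 0.5–200 µM chemical, synchronised N2 L1 larvae of C. elegans (50 per well) grew for 48 h at 20°C. Extinction was read for every worm on the Biosort, with debris removed by a growth model. Natural-log values averaged per well gave mean size, which was corrected per plate by subtracting the vehicle control mean and adding 6.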

[2] = test system: Caenorhabditis elegans N2; test: lowest effective concentration for larval growth inhibition (size below effect threshold); higher = less potent; conditions: exposure time 48 h
Procedure, shortened: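 In 96-well plates, 50 C. elegans N2 L1 larvae per well were cultured at 20°C for 48 h in K-medium with killed bacteria and 1% DMSO, plus the chemical at 0.5, 1, 5, 10, 50, 100 or 200 µM. Size was measured as per-worm extinction on a Biosort and log-transformed into well means. Taking the first dose where the plate-adjusted mean size sits under 5.665 and stays there at higher doses gives the lowest effective concentration.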

For `CCCCCCCCc1ccc(O)cc1` [4-Octylphenol], the “mean nematode size ln(EXT) (ln)” value ([1]; 0.5 µM) was 5.89, the “mean nematode size ln(EXT) (ln)” value ([1]; 1 µM) was 5.9 and the “mean nematode size ln(EXT) (ln)” value ([1]; 5 µM) was 5.76. The “mean nematode size ln(EXT) (ln)” value ([1]; 10 µM) was 5.7, the “mean nematode size ln(EXT) (ln)” value ([1]; 50 µM) was 3.75 and the “mean nematode size ln(EXT) (ln)” value ([1]; 100 µM) was 3.92. For the same molecule, the “mean nematode size ln(EXT) (ln)” value ([1]; 200 µM) was 3.84 and the lowest effective concentration [2] was 50 µM.
